{
  "sequences": {"note": "Protein sequences, listed by entry. Tags and fused reporters are not part of them. Lines headed by an entry give the natural chain unless they say otherwise; changes in a name come on top.", "UniProt P42224": "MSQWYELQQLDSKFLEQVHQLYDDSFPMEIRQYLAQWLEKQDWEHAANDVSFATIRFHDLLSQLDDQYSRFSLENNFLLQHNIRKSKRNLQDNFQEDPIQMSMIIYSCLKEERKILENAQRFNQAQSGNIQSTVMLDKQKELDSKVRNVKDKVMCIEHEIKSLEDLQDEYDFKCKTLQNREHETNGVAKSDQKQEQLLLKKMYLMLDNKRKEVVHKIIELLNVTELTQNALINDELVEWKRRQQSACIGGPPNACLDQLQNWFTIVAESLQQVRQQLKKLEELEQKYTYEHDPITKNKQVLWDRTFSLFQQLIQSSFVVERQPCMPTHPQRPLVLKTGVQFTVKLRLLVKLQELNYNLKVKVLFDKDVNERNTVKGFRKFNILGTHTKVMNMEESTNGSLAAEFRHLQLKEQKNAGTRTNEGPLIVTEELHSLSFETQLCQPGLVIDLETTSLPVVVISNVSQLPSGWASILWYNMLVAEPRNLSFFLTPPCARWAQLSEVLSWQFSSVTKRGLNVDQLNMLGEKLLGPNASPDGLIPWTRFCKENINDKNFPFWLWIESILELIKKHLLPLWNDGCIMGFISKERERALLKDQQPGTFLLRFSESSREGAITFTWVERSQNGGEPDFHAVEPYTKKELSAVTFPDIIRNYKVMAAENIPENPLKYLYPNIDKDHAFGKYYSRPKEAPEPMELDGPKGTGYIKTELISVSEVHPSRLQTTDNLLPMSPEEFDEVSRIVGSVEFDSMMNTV"},
  "source": "paper PMC11977219",
  "binders": {"B1": {"name": "Myc-Viperin (HL-1 cells) (protein, UniProt Q8WXG1 1-361)", "chain": "MWVLTPAAFAGKLLSVFRQPLSSLWRSLVPLFCWLRATFWLLATKRRKQQLVLRGPDETKEEEEDPPLPTTPTSVNYHFTRQCNYKCGFCFHTAKTSFVLPLEEAKRGLLLLKEAGMEKINFSGGEPFLQDRGEYLGKLVRFCKVELRLPSVSIVSNGSLIRERWFQNYGEYLDILAISCDSFDEEVNVLIGRGQGKKNHVENLQKLRRWCRDYRVAFKINSVINRFNVEEDMTEQIKALNPVRWKVFQCLLIEGENCGEDALREAERFVIGDEEFERFLERHKEVSCLVPESNQKMKDSYLILDEYMRFLNCRKGRKDPSKSILDVGVEEAIKFSGFDEKMFLKRGGKYIWSKADLKLDW"}, "B2": {"name": "Myc-tagged human Viperin (WT) (protein, UniProt Q8WXG1 1-361)", "chain": "B1 chain"}, "B3": {"name": "Viperin (as tested against the STAT1 deletion mutants) (protein, UniProt Q8WXG1 1-361)", "chain": "B1 chain"}},
  "key": {"[1]": {"target": "Flag-STAT1 (HL-1 cells) (human) (UniProt P42224)", "assay": "co-IP; HL-1 cells transfected with Flag-STAT1 and Myc-Viperin, then treated with or without VS-IP1 (200 μM) for 12 h; also Supplementary Fig. S7a (cells not shown)"}, "[2]": {"target": "STAT1 (as tested against the Viperin deletion mutants) (UniProt P42224)", "assay": "co-IP; tagged wild-type proteins and deletion mutants of Viperin or STAT1 in transfected cells (Supplementary Figs. S3f, S6a, S6b; cells and baits not shown)"}, "[3]": {"target": "Myc-His-tagged STAT1-WT (human) (UniProt P42224)", "assay": "co-IP; tagged wild-type proteins and deletion mutants of Viperin or STAT1 in transfected cells (Supplementary Figs. S3f, S6a, S6b; cells and baits not shown)"}},
  "note": "No constants are given. Whether binding was seen depends on the method and setting. Binding seen in cells or lysates may run through a third protein. Some entries that bind do so weakly or less than the wild type. For part of these data: Sequences can lack the tags named with a protein.",
  "data": [
    {"binder": "B1", "values": [
      {"measurement": "binding", "setting": "[1]", "result": "binds"}
    ]},
    {"binder": "B2", "values": [
      {"measurement": "binding", "setting": "[2]", "result": "binds"}
    ]},
    {"binder": "B3", "values": [
      {"measurement": "binding", "setting": "[3]", "result": "binds"}
    ]}
  ]
}
